In the assay the test system is B6C3F1 mice, B16 melanoma ip, median survival T/C. As to the kind of experiment: NCI In Vivo Anticancer Drug Screen. Data for tumor model B16 Melanoma (intraperitoneal) in B6C3F1 mice. Conditions: T/C endpoint: median survival time, schedule: Q01DX009 (ip), higher T/C = longer survival. Put shortly: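 Transplantable tumor in mice; treated vs vehicle control groups; survival or tumor size measured; value = T/C ratio.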

Where [1] appears, read: dose: 12.5 mg/kg/injection, vehicle: saline with Tween-80.
Setting [2] is: dose: 25.0 mg/kg/injection, vehicle: saline with Tween-80.
The mark [3] stands for this setting: dose: 50.0 mg/kg/injection, vehicle: saline with Tween-80.
The mark [4] stands for this setting: dose: 12.5 mg/kg/injection, vehicle: saline.
The mark [5] stands for this setting: dose: 25.0 mg/kg/injection, vehicle: saline.
Setting [6] is: dose: 50.0 mg/kg/injection, vehicle: saline.
Setting [7] is: dose: 100.0 mg/kg/injection, vehicle: saline with Tween-80.
Where [8] appears, read: dose: 100.0 mg/kg/injection, vehicle: saline.
Setting [9] is: dose: 200.0 mg/kg/injection, vehicle: saline with Tween-80.
[10] abbreviates: dose: 200.0 mg/kg/injection, vehicle: saline.
The mark [11] stands for this setting: dose: 400.0 mg/kg/injection, vehicle: saline with Tween-80.
Setting [12] is: dose: 400.0 mg/kg/injection, vehicle: saline.
Where [13] appears, read: dose: 30.0 mg/kg/injection, vehicle: Klucel (hydroxypropylcellulose) (HPC).
Setting [14] is: dose: 60.0 mg/kg/injection, vehicle: Klucel (hydroxypropylcellulose) (HPC).
Where [15] appears, read: dose: 69.45 mg/kg/injection, vehicle: saline.
Where [16] appears, read: dose: 400.0 mg/kg/injection, vehicle: Klucel (hydroxypropylcellulose) (HPC).

The list shows only some results of the screen, not a fair sample: it gathers tests that were run many times, whatever their T/C, doses with no T/C, and many T/C values between a quarter and a half above the control. Further doses and runs are listed elsewhere. T/C is the treated group as % of the vehicle group. Some entries give survivors of the animals treated and no T/C: the source files T/C as zero there, which appears to mark a toxic dose or a test without result, not a measured value. Some survivor counts are full or nearly so, which does not show that the dose was tolerated: the source hardly ever lists a survival T/C far under the control, and the zero likely stands for such cases as well. Survivors were counted at the toxicity check, usually on the fifth day, unless a day is given; later deaths do not show. Schedules are NCI's codes, read here as Q, the interval in days (D) or hours (H), X, the number of doses. Some entries hold several experiments; the results are listed from low to high. Where survival is the endpoint, the PubChem record calls one and a half times the control and up active, and a quarter to a half above the control has no call in these data; cut-offs in other NCI protocols can differ. Some T/C values carry the count of animals alive at the toxicity check (mostly the fifth day); without a count, all were alive then.

As for `CC(Br)C(=O)c1ccc2cc(Br)c3ccccc3c2c1` (stereo not drawn), the survivor count is 10 of 10 under setting [1], 10 of 10 under setting [2] and 10 of 10 under setting [3].

Turning to `CCN(CC)CC[n+]1ccc2c(C)c3[nH]c4ccc(O)cc4c3c(C)c2c1`, the T/C is 132 and 140 % of control (dose: 1.56 mg/kg/injection, vehicle: saline); 140 % of control (dose: 1.56 mg/kg/injection, vehicle: suspension in saline); 148 % of control (dose: 3.12 mg/kg/injection, vehicle: saline); 142 % of control (dose: 3.12 mg/kg/injection, vehicle: suspension in saline). Also, the survivor count reads like this: under setting [4], 8 of 8; (dose: 12.5 mg/kg/injection, vehicle: suspension in saline) 10 of 10; under setting [5], 8 of 8; (dose: 25.0 mg/kg/injection, vehicle: suspension in saline) 10 of 10; under setting [6], 2 of 8; (dose: 50.0 mg/kg/injection, vehicle: suspension in saline) 10 of 10.

Consider `COC(=O)Nc1nc2ccc(C3(c4ccc(F)cc4)OCCO3)cc2[nH]1`, for which the T/C was 129 % of control under setting [1], 134 % of control under setting [2], 138 % of control under setting [5] and 143 % of control under setting [3]. Further, the survivor count is, setting by setting: under setting [2], 10 of 10; under setting [6], 10 of 10; under setting [7], 1 of 10 and 4 of 10; under setting [8], 4 of 10; under setting [9], 1 of 10; under setting [10], 0 of 10. Further, the survivor count runs as follows: under setting [11], 0 of 10; under setting [12], 0 of 10.

In the case of `O=S(=O)(N=N/C=C1\C=CC=CN1O)c1cccs1`, the T/C under setting [7] is 127 % of control. Further, the survivor count was 8 of 10 under setting [9] and 1 of 10 under setting [11].

With `CCC(C(=O)O)C(=O)O.[NH-]CC1CCCC[N-]1.[Pt+2]`, the T/C was 140 % of control under setting [6]; 129 % of control under setting [8]; 135 % of control [9 of 10 alive] (dose: 100.0 mg/kg/injection, vehicle: suspension in saline). Moreover, the survivor count under setting [10] is listed as 0 of 10; the survivor count (dose: 200.0 mg/kg/injection, vehicle: suspension in saline) is given as 2 of 10; the survivor count (dose: 400.0 mg/kg/injection, vehicle: suspension in saline) is 1 of 10.

In the case of `S=c1nc[nH]c2nc[nH]c12`, the T/C reads like this: (dose: 15.0 mg/kg/injection, vehicle: Klucel (hydroxypropylcellulose) (HPC)) 90 [9 of 10 alive], 101, 103, 107, 110, 113 % of control; under setting [13], 98, 103, 110 [9 of 10 alive], 114, 115 % of control; under setting [14], 88, 93 [9 of 10 alive], 105 % of control. The survivor count runs as follows: under setting [13], 10 of 10; (dose: 50.0 mg/kg/injection, vehicle: Klucel (hydroxypropylcellulose) (HPC)) 10 of 10; under setting [14], 10 of 10; (dose: 100.0 mg/kg/injection, vehicle: Klucel (hydroxypropylcellulose) (HPC)) 10 of 10; (dose: 120.0 mg/kg/injection, vehicle: Klucel (hydroxypropylcellulose) (HPC)) 10 of 10; (dose: 200.0 mg/kg/injection, vehicle: Klucel (hydroxypropylcellulose) (HPC)) 10 of 10. For the same molecule, where the note is “dose: 240.0 mg/kg/injection, vehicle: Klucel (hydroxypropylcellulose) (HPC)”, the survivor count was 9 of 10 and 10 of 10.

Consider `CS(=O)(=O)CS(=O)(=O)OCCCl`, for which the T/C under setting [1] was 139 % of control. Also, the survivor count under setting [7] is on record as 8 of 10; the survivor count under setting [9] was 0 of 10 and 8 of 10.

As for `CS(=O)(=O)CS(=O)(=O)OCCF`, the T/C runs as follows: under setting [4], 128 % of control; under setting [15], 147 % of control. The survivor count is listed as 5 of 10 under setting [6]; 7 of 10 under setting [15]; 4 of 10 (dose: 115.75 mg/kg/injection, vehicle: saline).

On to `CC(=O)NCCCCCCNC(C)=O`, for which, under setting [12], the T/C was 140 % of control [9 of 10 alive].

As for `CN1CCN(c2ccc3nc(-c4ccc5nc(-c6ccc(O)cc6)[nH]c5c4)[nH]c3c2)CC1`, the survivor count by setting is: under setting [6], 10 of 10; under setting [8], 10 of 10; under setting [10], 9 of 9.

With `NC(=O)/C=C/C(=O)c1c(Cl)cccc1Cl`, the survivor count is, setting by setting: (dose: 6.25 mg/kg/injection, vehicle: saline with Tween-80) 10 of 10; under setting [1], 7 of 10; under setting [2], 2 of 10.

`CC1[C@@H]2CC=C3[C@H]4CCC5Cc6nc7c(nc6C[C@@]5(C)C4CC(=O)[C@]32CO[C@]12OC(C)(C)CC2O)CC1CC[C@@H]2C3=C[C@H]4O[C@@]5(O[C@@](C)(CO)C[C@@H]5O)C(C)[C@@]4(O)[C@]3(C)[C@@H](O)CC2[C@]1(C)C7` (stereo partly drawn): the survivor count (dose: 100.0 micrograms/kg/injection, vehicle: saline + alcohol) is reported as 10 of 10.

Regarding `CC1CCC(n2cnc3c(Cl)ncnc32)O1` (stereo not drawn), the survivor count under setting [16] is 6 of 10 and 10 of 10.

`S=C(Nc1ccc(Cl)c(Cl)c1)N1c2ccccc2-n2cccc2C1c1cccnc1` (stereo not drawn): the survivor count is 10 of 10 under setting [16] and 10 of 10 under setting [11].

(Values after PubChem BioAssay AID200 (DTP/NCI, 2004).)
